The list does not hold the whole screen: it gathers tests that were run many times, whatever their T/C, doses with no T/C, and many T/C values between a quarter and a half above the control. Further doses and runs are listed elsewhere. T/C: endpoint of the treated group in % of that of the vehicle group. Some doses have a count of surviving animals in place of a T/C: the source holds a T/C of zero for them, seemingly a mark for toxic or unscored doses. Some survivor counts are full or nearly so, which does not show that the dose was tolerated: the source hardly ever lists a survival T/C far under the control, and the zero likely stands for such cases as well. Counts of survivors are from the toxicity check (mostly the fifth day) where no day follows; animals may have died later. Schedule codes are those of the source, read here as Q, the interval in days (D) or hours (H), X, the number of doses. Some doses were run more than once; the results are listed from low to high. Brackets with × stand for listed records that agree. Where survival is the endpoint, this PubChem deposit counts one and a half times the control or more as active, and values a quarter to a half above the control carry no call in these data; other NCI protocols may use other cut-offs. Some T/C values are followed by the survivors on the day toxicity was checked, most often the fifth; without a count, all were alive then.
System: P388 leukemia ip, CD2F1 mice, survival T/C
Experiment: NCI In Vivo Anticancer Drug Screen. Data for tumor model P388 Leukemia (intraperitoneal) in CD2F1 (CDF1) mice
Conditions: T/C endpoint: median survival time, higher T/C = longer survival
[1] = dose: 6.25 mg/kg/injection, schedule: Q01DX009 (ip), vehicle: saline with Tween-80
[2] = dose: 12.5 mg/kg/injection, schedule: Q01DX009 (ip), vehicle: saline with Tween-80
[3] = dose: 25.0 mg/kg/injection, schedule: Q01DX009 (ip), vehicle: saline with Tween-80
[4] = dose: 100.0 mg/kg/injection, schedule: Q01DX009 (ip), vehicle: water
[5] = dose: 50.0 mg/kg/injection, schedule: Q01DX009 (ip), vehicle: saline with Tween-80
[6] = dose: 100.0 mg/kg/injection, schedule: Q01DX009 (ip), vehicle: saline with Tween-80

CC12CCC(Br)C(C)(C)C1C(O)C=C1C(=O)OCC1O2 (stereo not given)
survivor count (dose: 64.0 mg/kg/injection, schedule: Q01DX005 (ip), vehicle: Klucel (hydroxypropylcellulose) (HPC)): 0 of 5

O=S(=O)(F)c1ccc(O)cc1
survivor count (dose: 120.0 mg/kg/injection, schedule: Q01DX005 (ip), vehicle: saline): 0 of 6
survivor count (dose: 240.0 mg/kg/injection, schedule: Q01DX005 (ip), vehicle: saline): 0 of 6

COC(=O)/C=c1/s/c(=C\C(C)=N)[nH]c1=O
survivor count (dose: 240.0 mg/kg/injection, schedule: Q01DX005 (ip), vehicle: saline with Tween-80): 6 of 6

CCOC(=O)N1CCN(CCCCCOc2ccc(CC(C)(C)C)cc2Cl)CC1
survivor count (dose: 400.0 mg/kg/injection, schedule: Q01DX009 (ip), vehicle: saline with Tween-80): 2 of 6

O=C(O)c1cc[c]([Hg][S]c2ncnc3nc[nH]c23)cc1
T/C [1]: 127 % of control
T/C [2]: 126 % of control [5 of 6 alive]
survivor count [3]: 1 of 6
survivor count (dose: 50.0 mg/kg/injection, schedule: Q01DX009 (ip), vehicle: Klucel (hydroxypropylcellulose) (HPC)): 1 of 6
survivor count (dose: 100.0 mg/kg/injection, schedule: Q01DX009 (ip), vehicle: Klucel (hydroxypropylcellulose) (HPC)): 0 of 6
survivor count (dose: 200.0 mg/kg/injection, schedule: Q01DX009 (ip), vehicle: Klucel (hydroxypropylcellulose) (HPC)): 0 of 6

C[C@@H]1C[C@@H]([C@H](O)CC2CC(=O)NC(=O)C2)C(=O)[C@@H](C)C1
T/C (dose: 25.0 mg/kg/injection, schedule: Q01DX009 (ip), vehicle: water): 127 % of control
T/C (dose: 50.0 mg/kg/injection, schedule: Q01DX009 (ip), vehicle: water): 134 % of control
survivor count (dose: 60.0 mg/kg/injection, schedule: Q01DX009 (ip), vehicle: water): 3 of 6
T/C [4]: 132 % of control
survivor count [4]: 2 of 6 and 3 of 6
T/C (dose: 108.0 mg/kg/injection, schedule: Q04DX003 (ip), vehicle: Klucel (hydroxypropylcellulose) (HPC)): 137 % of control
survivor count (dose: 140.0 mg/kg/injection, schedule: Q01DX009 (ip), vehicle: water): 0 of 6
survivor count (dose: 160.0 mg/kg/injection, schedule: Q01DX009 (ip), vehicle: water): 3 of 6
survivor count (dose: 180.0 mg/kg/injection, schedule: Q04DX003 (ip), vehicle: Klucel (hydroxypropylcellulose) (HPC)): 8 of 8
survivor count (dose: 200.0 mg/kg/injection, schedule: Q01DX009 (ip), vehicle: water): 2 of 6 and 4 of 6

CCCCCCCCCCCCCCCCCC[N+](C)(C)c1nc(Cl)nc(Cl)n1
survivor count (dose: 100.0 mg/kg/injection, schedule: Q01DX009 (ip), vehicle: saline): 2 of 6
survivor count (dose: 200.0 mg/kg/injection, schedule: Q01DX009 (ip), vehicle: saline): 0 of 6
survivor count (dose: 400.0 mg/kg/injection, schedule: Q01DX009 (ip), vehicle: saline): 0 of 6

Nc1nc(=O)[nH]s1
survivor count [2]: 6 of 6
T/C [3]: 86, 87, 88, 101 % of control
T/C [5]: 89 [5 of 6 alive] and 125 % of control
survivor count [5]: 3 of 6 (2×)
survivor count [6]: 2 of 6 and 3 of 6

CCCCCCOCCN1CCN(CCCN2c3ccccc3Sc3ccc(C(F)(F)F)cc32)CC1
T/C [1]: 129 % of control [5 of 6 alive]
T/C [2]: 129 % of control [5 of 6 alive]
survivor count [3]: 5 of 6
survivor count [5]: 1 of 6
survivor count [6]: 0 of 6

Nc1cccc(NCc2ccccn2)n1
survivor count (dose: 200.0 mg/kg/injection, schedule: Q01DX005 (ip), vehicle: Klucel (hydroxypropylcellulose) (HPC)): 0 of 6

Reference: PubChem BioAssay AID330 (DTP/NCI, 2004)
